Assay results as given in patent publication US20240124387A1, “ACID RECOVERY” (GREENCOVERY B.V., priority 2021, published 2024).

Experiments:
[1] = Desorption of acid from weak anion exchange resin with alcoholic hydroxide eluent; type: physicochemical; conditions: for acid desorbed per mL of resin bed: eluent 90 wt. % ethanol, 10 wt. % water, 1M KOH; for amino acid desorbed per mL of resin bed: 0.425 M KOH in 93.5 wt. % ethanol
[2] = Adsorption of acid on weak anion exchange resin column; type: physicochemical; conditions: for acid adsorbed per mL of the resin bed: 6.6 mL weak anion exchange resin, 30 mL of 20 g/L acid solution; for amino acid adsorbed per mL of resin bed: 7.4 mL WBA, feed 1.92 g/L glutamate, 2.5 g/L leucine or alanine, until absorbance constant

Compound	acid desorbed per mL of resin bed [1]	acid adsorbed per mL of the resin bed [2]	amino acid desorbed per mL of resin bed [1]	amino acid adsorbed per mL of resin bed [2]
CC(O)C(=O)O (stereo not shown) [lactate, lactic acid]	18.5 mg per mL of resin bed	48.1 mg per mL of resin bed		
CC(C)C[C@H](N)C(=O)O [Leucine, L-leucine]			16.2 mg per mL of resin bed	21.5 mg per mL of resin bed
C[C@H](N)C(=O)O [alanine, L-alanine]			10.5 mg per mL of resin bed	16.5 mg per mL of resin bed
CCCCCC(=O)O [caproate, caproic acid]	(essentially) all adsorbed caproate was desorbed	38.3 mg per mL of resin bed		
N[C@@H](CCC(=O)O)C(=O)O [Glutamic acid]			7.4 mg per mL of resin bed	16.2 mg per mL of resin bed
